Results from one PubChem assay

From PubChem BioAssay record AID912 (NCATS, 2007).

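A cell-based FRET test of anthrax lethal toxin entry, tracked through the 460 nm emission signal; the cell line is not named here. Each compound was tested as a concentration series from about 0.0005 to 40 µM. The number is the fitted AC50 of the 460 nm signal alone; lower values mean a more potent effect. A falling signal goes with compounds filed as inhibitors or cytotoxic, a rising one with activators or fluorescent compounds (inferred from the filed classes).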

Values are in µM. Common to all entries: measured here: 460 nm channel. This is a side read-out of the assay, for part of the compounds, not drawn at random. Potencies fitted to partial, single-point or poorly fitting curves are rough. The first word of each remark tells which way the curve ran; it can be opposite to the aim of the assay.

| # | structure | AC50 (µM) | remark |
|---|---|---|---|
| 1 | `CC1(C)Cc2noc(N)c2C(C)(C)N1OC(=O)c1ccco1` | 2.512 | falling, single point |
| 2 | `COc1ccc(-c2cc(C(F)(F)F)nc(S(=O)(=O)CCC(=O)N3CCOCC3)n2)cc1` | 0.7943 | falling, partial curve |
| 3 | `Brc1ccc(CSc2nnc(Cc3c[nH]c4ccccc34)o2)cc1` | 10 | falling, single point |
| 4 | `CN(CCOc1ccc(C[C@H](Nc2ccccc2C(=O)c2ccccc2)C(=O)O)cc1)c1ccccn1` | 12.59 | falling, single point |
| 5 | `CCOCCCn1c(=S)[nH]c2cc(C(=O)N3CCOCC3)ccc2c1=O` | 3.981 | falling, single point |
| 6 | `Cc1cccc(N2CCN(C(=O)C3CCN(S(=O)(=O)c4cccc5cccnc45)CC3)CC2C)c1` (stereo not given) | 7.943 | falling, partial curve |
| 7 | `COCCn1c(=O)cnc2cnc(Nc3cccc(OC)c3)nc21` | 5.012 | rising, single point |
| 8 | `C[C@@H](C(=O)O)/C(=C/c1ccc2c(c1)OCO2)C(=O)O` | 5.012 | rising, partial curve |
| 9 | `CCOc1ccc(/C(O)=C2/C(=O)C(=O)N(CCOCCO)C2c2ccccc2)cc1` (stereo not given) | 0.1259 | falling, full curve |
| 10 | `Cc1ccc2c(c1)[nH]c1c(N3CCN(Cc4ccccc4)CC3)ncnc12` | 31.62 | falling, single point |
| 11 | `CCCCOC(=O)Cn1c(=O)c2c(nc(Br)n2Cc2ccccc2)n(C)c1=O` | 12.59 | falling, partial curve |
| 12 | `COc1ccc(-n2c(Cc3cccn3C)nnc2SCC(=O)Nc2cc(C)cc(C)c2)cc1` | 31.62 | falling, single point |
| 13 | `CN1CCc2c(sc3c2C(=O)NC(c2cn(Cc4ccccc4)c4ccccc24)N3)C1` (stereo not given) | 6.31 | rising, partial curve |
| 14 | `Cc1noc(C)c1C(=O)Nc1sc(C)c(C)c1C#N` | 0.631 | falling, partial curve |
| 15 | `COc1cc(OC)cc(C(=O)N2CCN(c3ncccn3)CC2)c1` | 15.85 | rising, single point |
| 16 | `CC1Oc2ccccc2N(Cc2ccccc2F)C1=O` (stereo not given) | 12.59 | falling, partial curve |
| 17 | `CCOC(=O)C1=C(C)NC(C)=C(C(=O)OC)[C@H]1c1cccc([N+](=O)[O-])c1` | 3.162 | rising, partial curve, poor fit |
| 18 | `Cc1ccc(N2CC(c3nc4ccccc4n3C)CC2=O)cc1C` (stereo not given) | 15.85 | falling, partial curve |
| 19 | `CCOC(=O)N1CCN(C(=O)c2ccc(CN(c3ccc(C)c(C)c3)S(C)(=O)=O)cc2)CC1` | 1.995 | rising, full curve, poor fit |
| 20 | `COc1cc(C2C3=C(Nc4ncnn42)c2ccccc2CC3)cc(OC)c1OC` (stereo not given) | 0.1259 | falling, full curve, poor fit |
| 21 | `CCOC(=O)C(C)C(C)=O` (stereo not given) | 31.62 | falling, partial curve |
| 22 | `CCCn1c(C)nc2c(NCCN(C(C)C)C(C)C)nc(C)nc21` | 12.59 | falling, partial curve |
| 23 | `O=c1c(-c2ccc(F)cc2)nc2cncnc2n1Cc1ccccc1` | 10 | rising, partial curve |
| 24 | `CSCSC1=C(C#N)C(c2ccc(Cl)cc2)C(C(C)=O)=C(C)N1` (stereo not given) | 31.62 | falling, single point |
| 25 | `O=c1c2ccccc2nc(SCc2nc(-c3ccccc3)no2)n1-c1ccc(F)cc1` | 3.162 | falling, full curve |
| 26 | `COc1cc(C(=O)OC(C)CN2CCCC2)cc(OC)c1OC` (stereo not given) | 0.631 | falling, full curve |
| 27 | `Cc1cc(Cl)ccc1N1C(=O)CC(SCCC(=O)O)C1=O` (stereo not given) | 0.1585 | rising, full curve, poor fit |
| 28 | `CC(=O)NS(=O)(=O)c1ccc(NS(=O)(=O)c2ccc(F)cc2)cc1` | 0.01585 | falling, full curve, poor fit |
| 29 | `O=c1c2ccccc2oc2cc(O)c([C@@H]3COC[C@@H](CO)[C@@H](O)[C@@H](O)[C@H]3O)c(O)c12` | 0.001259 | rising, full curve, poor fit |
| 30 | `Cc1ccc(NC2=NCC(=O)N2Cc2ccc3c(c2)OCO3)c(C)c1` | 10 | falling, single point |
| 31 | `Cc1nc2ccccc2c2oc(C(=O)NCC3COc4ccccc4O3)cc12` (stereo not given) | 5.012 | falling, partial curve |
| 32 | `CCNc1nc(NCC)n2c(SCc3nc4ccccc4c(=O)[nH]3)nnc2n1` | 5.012 | rising, single point |
| 33 | `O=C1C(=O)N(CCCN2CCOCC2)C(c2ccccn2)/C1=C(\O)c1ccc2c(c1)OCCO2` (stereo not given) | 0.05012 | falling, full curve, poor fit |
| 34 | `COc1ccccc1N(CC(=O)NCc1ccccc1)S(C)(=O)=O` | 5.012 | rising, single point |
| 35 | `COc1ccc(NC(=O)CN2CCC3(O)CCCCC3C2c2cc(OC)ccc2OC)cc1` (stereo not given) | 0.01 | rising, full curve, poor fit |
| 36 | `COCCn1c(=O)c(-c2cccc(C#N)c2)nc2cnc(Oc3cccc(Cl)c3)nc21` | 0.02512 | falling, full curve, poor fit |
| 37 | `N#Cc1c(NC(=O)CCCN2C(=O)c3ccccc3C2=O)oc(-c2ccccc2)c1-c1ccccc1` | 3.981 | falling, partial curve |
| 38 | `CC(=O)c1nccs1` | 12.59 | rising, single point |
| 39 | `CN(C)CCCN1c2ccccc2Sc2ccc(Cl)cc21` | 25.12 | falling, partial curve |
| 40 | `Cc1cc2nc(C3CCN(CC4COc5ccccc5O4)CC3)[nH]c2cc1C` (stereo not given) | 10 | falling, partial curve |
| 41 | `Nc1c(C(=O)c2ccccc2)oc2ccc(Br)cc12` | 31.62 | rising, single point |
| 42 | `Cc1cc(C)n2c(SCc3c(C)noc3C)nnc2n1` | 5.012 | rising, partial curve |
| 43 | `CCNc1ncc2nc(-c3ccc(OC)cc3)c(=O)n(-c3ccc(OC)cc3)c2n1` | 2.512 | rising, full curve |
| 44 | `COc1ccc(-n2c(=O)c(-c3cc(F)cc(F)c3)nc3cnc(N4CCNCC4)nc32)cc1` | 12.59 | rising, partial curve |
| 45 | `CCOC(=O)N1CCN(c2ncnc3c2oc2nc(CC(C)C)c4c(c23)CCC4)CC1` | 0.5012 | rising, full curve |
| 46 | `O=C(Nc1nc(-c2ccc3c(c2)OCO3)cs1)C1COc2ccccc2O1` (stereo not given) | 7.943 | falling, partial curve |
| 47 | `CCc1c2c(nc3c(C(C)C)cccc13)-c1cccc(=O)n1C2` | 31.62 | falling, single point |
| 48 | `Nc1c(OCC(=O)O)ccc2cc(S(=O)(=O)O)ccc12` | 1 | falling, single point |
| 49 | `N=C(c1ccc2ccccc2c1)c1ccccc1Cc1ccccc1` | 3.162 | falling, partial curve |
| 50 | `Cc1cccn2c(=O)c3cc(C(=O)N4CCN(C(=O)c5ccco5)CC4)n(C)c3nc12` | 31.62 | rising, single point |
| 51 | `CC(C)C(c1nnnn1C1CCCC1)N1c2ccccc2CC1C` (stereo not given) | 15.85 | falling, partial curve, poor fit |
| 52 | `Cc1nc2nc3c(c(=O)n2[nH]1)CCC3` | 0.1 | falling, full curve, poor fit |
| 53 | `COCC(=O)Nc1nc(-c2ccccc2)ns1` | 0.7943 | falling, full curve, poor fit |

The first 3 entries again:

For CC1(C)Cc2noc(N)c2C(C)(C)N1OC(=O)c1ccco1 the result was AC50 2.512 µM (falling, single point).
For COc1ccc(-c2cc(C(F)(F)F)nc(S(=O)(=O)CCC(=O)N3CCOCC3)n2)cc1 the result was AC50 0.7943 µM (falling, partial curve).
For Brc1ccc(CSc2nnc(Cc3c[nH]c4ccccc34)o2)cc1 the result was AC50 10 µM (falling, single point).